For 18 molecules, cell number change and AC50 results are on record in PubChem BioAssay AID2685 (National Center for Advancing Translational Sciences (NCATS), 2010).

This assay can be described thus: qHTS Assay for Lipid Storage Modulators in Drosophila S3 Cells.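 As to cell number change: cells counted by Cell Tracker Red CMTPX staining in the red channel.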 Conditions: BODIPY lipid droplet fluorescence, 18-24 h; for cell number change: measured here: cell count max response, cells fed with added oleic acid. The method in brief: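 Drosophila S3 cells got compounds at several concentrations plus oleic acid (400 uM solution). Laser-scanning cytometry with 488 nm excitation read lipid droplets at 500-530 nm and cells at 575-640 nm. Percent activity was relative to 20 uM Triacsin C.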

[1] abbreviates: measured here: cell number channel AC50, cells fed with added oleic acid.
Setting [2] is: measured here: lipid fluorescence (Fed channel) AC50, cells fed with added oleic acid.

This is one part of the list. Further columns of the screen follow, without active or inactive calls. Most of these compounds were active or inconclusive in the main read-out, so they are no random draw. Potencies come from curve fits of mixed quality, noted in brackets.

Take `CC(C)(C)NC(=O)c1ccccc1NC(=O)C1CCCO1` (stereo not given): the cell number change is -5.1%. In addition, the AC50 under setting [1] was 0.651 µM [rising, partial curve, poor fit].

For the molecule `COc1cccc(CNc2cccc3cccnc23)c1O`, the AC50 under setting [1] was 0.116 µM [rising, full curve, poor fit].

In the case of `CCOc1ccc(CCNC(=O)CCc2nnc3ccc(N4CCCCC4)nn23)cc1OCC`, the cell number change is -40.1%. In addition, the AC50 under setting [1] is 10.3 µM [falling, partial curve, poor fit]. Further, the AC50 under setting [2] was 3.66 µM [falling, full curve].

`O=C(c1ccc(-n2cccn2)cc1)N1CCc2ccccc2C1`: the cell number change was -13.4%. Moreover, the half-maximal activity concentration (AC50) under setting [2] is 29.1 µM [falling, single point].

Turning to `N#CC1(NC(=O)COC(=O)c2nc(Cl)c(Cl)c(N)c2Cl)CCCCC1`, the AC50 is 3.66 µM [falling, partial curve] under setting [1] and 2.06 µM [falling, partial curve, poor fit] under setting [2].

As to `C=CCN(CC=C)S(=O)(=O)c1ccc(NC(=S)NC(=O)c2ccc(-c3ccccc3)cc2)cc1`, the cell number change turned out to be 4.13%. Moreover, the AC50 under setting [2] was 6.51 µM [rising, partial curve, poor fit].

As for `CCN1CCN(c2cc(=O)n(-c3cc(Cl)ccc3C)c(=O)[nH]2)CC1`, the AC50 under setting [1] was 0.651 µM [rising, single point].

As for `OC(CN1CCNCC1)Cn1ccc2ccccc21` (stereo not given), the cell number change is -6.65%.

On to `COc1cccc(-c2nc(C=O)cs2)c1`, for which the cell number change was -11%.

With `O=C1c2[nH]nc(-c3ccccc3O)c2C(c2ccccc2F)N1Cc1ccco1` (stereo not given), the cell number change is -23.8%.

`CCc1cc2c(=O)c(-c3cscn3)coc2c(CN(C)C)c1O`: the AC50 under setting [2] was 0.651 µM [falling, single point].

Take `O=C(/C=C/Nc1ccc(F)cc1Br)c1ccccc1`: the cell number change was found to be 15.1%. Moreover, the AC50 under setting [2] is 6.51 µM [rising, single point].

With `CCC(=O)Nc1ccc(C(=O)OCc2ccc(Cl)c(Cl)c2)cc1`, the cell number change is -1.29%. Moreover, under setting [2], the AC50 is 0.517 µM [rising, full curve, poor fit].

As for `Brc1ccc(-c2nnc(-c3cccc(Br)c3)o2)cc1`, the cell number change is -26.2%. The AC50 under setting [1] is 0.00461 µM [falling, full curve, poor fit].

In the case of `CCCN1CCN(CC(=O)Nc2nncs2)CC1`, the cell number change was determined as 11.6%.

For the molecule `COc1ccc(-c2cc(C(F)F)n3ncc(C(=O)Nc4cc(C)on4)c3n2)cc1`, the cell number change was 2.95%.

On to `COc1cccc(/C=N/NC(=O)c2cc3c(OC)ccc(OC)c3[nH]2)c1O`, for which the cell number change is -26%. Further, the AC50 under setting [2] was 7.31 µM [falling, partial curve, poor fit].

As for `CN(C)c1ccc(N=Nc2ccccc2C(=O)OCC(=O)NCC2CCCCC2)cc1`, the cell number change is -92.3%. In addition, the AC50 under setting [1] was 25.9 µM [falling, single point]. The AC50 under setting [2] is 18.4 µM [falling, single point].
